Reference: PubChem BioAssay AID504774 (Drosophila RNAi Screening Center, 2011)
Test: 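Fly genes whose loss alters survival after alkylation damage to DNA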 (primary screen). System: Drosophila Kc167 cells. Knock-down reagent: long dsRNA against Drosophila genes, about 0.25 µg dsRNA per well. Timing: about 6 days: 3 days knock-down, then 3 days with or without MMS. Challenge: methyl methanesulphonate 0.004% (w/v) for 3 days after knock-down. Detection: 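ATP-dependent luminescence as a measure of live cells in MMS-exposed wells, quantile normalised within each plate, with replicate values also given as a mean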. Reading the numbers: mean viability with MMS and viability with MMS: higher = more surviving cells after MMS.
In all, the deposit lists about 23,000 reagents; below is a random part of those with a known target gene and a result. 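Values are quantile-normalised luminescence on an arbitrary scale; higher means more cells surviving MMS.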 Reagents against one gene are numbered here. Reagent sequences are not shown.

mean viability with MMS	viability with MMS, replicate 1	viability with MMS, replicate 2	gene	reagent
3.35e6	3.77e6	3.78e6	cora (coracle)	1
3.55e6	4.18e6	3.89e6	CG7856	1
3.28e6	3.68e6	3.70e6	CG32137	1
3.20e6	3.62e6	3.52e6	CG32137	2
3.52e6	4.05e6	3.93e6	pira (pirate)	1
3.46e6	3.87e6	3.98e6	CG32407	1
3.57e6	3.99e6	4.10e6	Syx13 (Syntaxin 13)	1
3.42e6	3.93e6	3.83e6	CG4293	1
3.60e6	4.10e6	4.08e6	CG4021	1
3.31e6	3.70e6	3.72e6	CG10663	1
3.57e6	3.96e6	4.14e6	Gyc32E (Guanylyl cyclase at 32E)	1
3.58e6	4.08e6	4.03e6	CG12288	1
2.98e6	3.61e6	3.62e6	Scr (Sex combs reduced)	1
3.62e6	4.22e6	3.99e6	Scr (Sex combs reduced)	2
3.54e6	4.09e6	3.92e6	CG18171	1
3.57e6	3.86e6	4.22e6	PGAP3 (Post-GPI attachment to proteins 3)	1
3.62e6	4.27e6	3.95e6	CG17646	1
3.75e6	4.33e6	4.18e6	kkv (krotzkopf verkehrt)	1
3.36e6	3.69e6	3.93e6	Pdha (Pyruvate dehydrogenase E1 alpha subunit)	1
3.32e6	3.81e6	3.78e6	CG33225	1
3.50e6	4.09e6	3.66e6	GlcT (Glucosylceramide synthase)	1
3.73e6	4.07e6	4.33e6	CheB38c (Chemosensory protein B 38c)	1
3.67e6	3.87e6	4.44e6	Try29F (Trypsin 29F)	1
3.50e6	4.06e6	3.87e6	GNBP-like3 (GNBP-like 3)	1
3.60e6	4.06e6	4.01e6	Inx2 (Innexin 2)	1
3.55e6	4.07e6	3.82e6	Ret (Ret oncogene)	1
3.48e6	3.98e6	3.90e6	Ret (Ret oncogene)	2
3.48e6	3.96e6	3.89e6	CG6283	1

Only “viability with MMS, replicate 2”, for 4 of the entries above:
kkv (krotzkopf verkehrt)	4.18e6
Pdha (Pyruvate dehydrogenase E1 alpha subunit)	3.93e6
CG33225	3.78e6
GlcT (Glucosylceramide synthase)	3.66e6
